Earlier results in patent US8557958B1, “Compositions and methods for treatment of diabetes” (Tarix Pharmaceuticals Ltd., priority 2012, dated 2013).
For at least one compound, name, drawing or mass did not settle the structure.

System: mouse model
Conditions: Ebermann L. et al. Eur. J. Pharm., 590 (2008) 276-280; cited from earlier work

SMILES: CCNC(=O)NS(=O)(=O)c1sc(CC(C)C)cc1-c1ccc(Cn2c(-c3ccccc3)nc(OC)c2C=O)cc1 [AVE0991, 5-formyl-4-methoxy-2-phenyl-[[4-[2-(ethylaminocarbonylsulfonamido)-5-isobutyl-3-thienyl]-phenyl]-methyl]-imidazole]
- Effect on blood glucose level: no effect
